Measurements taken from patent US8222280B2, “Ether compounds with nitrogen-containing 5-member heterocycle and uses thereof” (Sinochem Corporation, priority 2008, dated 2012).
Some results were stated once for a whole list of compounds, not compound by compound.

The compounds below were run on second instar larvae of diamond backmoth (Plutella xylostella) (assay: Insecticidal activity against diamond backmoth, leaf disc spraying by airbrush). Details: dose 6.25 mg/L; mortality after 72 hrs; sprayed cabbage leaf disc.
Type: in vivo
Protocol: To determine the insecticidal and acaricidal activity of selected compounds by the following procedures:
Compounds were dissolved in mixed solvent (acetone:methanol=1:1), and diluted to required concentration with water containing 0.1% of tween 80.
The second instar larvae of diamond backmoth (Plutella xylostella) were used in biological test. The method of spraying by airbrush was employed.
Determination of insecticidal activity against diamond backmoth: The cabbage leaves were made into plates of 1 cm diameter by punch. A test solution (0.5 ml) was sprayed by airbrush at the pressure of 0.7 kg/cm^2 to both sides of every plate. 10 Second instar larvae were put into the petri-dishes after the leaf disc air-dried and 3 replicates were set for each treatment. Then the insects were maintained in observation room ([…], 60-70% R.H.). Scores were conducted and mortalities were calculated after 72 hrs.
`Cn1nc(-c2ccc(Cl)cc2)cc1OCCCCOc1ccc(OCC=C(Cl)Cl)cc1Cl` [Compound 248] was tested, and the “control of the second instar larvae of diamond backmoth” value (“control” for short) was “above 80%”.
In the case of `Cc1c(OCCCOc2c(Cl)cc(OCC=C(Cl)Cl)cc2Cl)nn(C)c1-c1ccc(C(C)C)cc1` [Compound 387], the “control” value is reported as “above 80%”.
In the case of `Cc1ccc(-c2c(C)c(OCCCOc3c(Cl)cc(OCC=C(Cl)Cl)cc3Cl)nn2C)cc1C` [Compound 377], the “control” value is reported as “above 80%”.
